Taken from: PubChem BioAssay AID686943 (Drosophila RNAi Screening Center, 2013)
The deposit covers about 23,000 reagents; below is a random part of those with a known target gene and a result. 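Extra replicates exist only for a retested subset of genes; insulin dose and duration not given; both raised and lowered dpERK matter.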 Further read-outs or replicates are left out here. The record does not give: the amount of reagent, the time to read-out.

Screen: 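Fly genes whose loss alters ERK activation after insulin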 (primary screen)
System: Drosophila S2R+ haemocyte-like cells expressing YFP-tagged ERK (Rolled)
Reagents: long dsRNA against Drosophila genes
Conditions: insulin stimulation versus unstimulated cells; dose and duration not given
Read-out: 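Per-plate z-scores of phospho-ERK immunostaining normalised to YFP-tagged ERK, measured with and without insulin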
Direction: replicate 1, z-score of dpERK with insulin and replicate 2, z-score of dpERK with insulin: higher = more active ERK per ERK-YFP after insulin

What is on record for Ir48c (Ionotropic receptor 48c) [DRSC06154]?
replicate 1, z-score of dpERK with insulin: 1.33; replicate 2, z-score of dpERK with insulin: 1.87

For CG14054 [DRSC17909], how do the results read?
replicate 1, z-score of dpERK with insulin: -0.18; replicate 2, z-score of dpERK with insulin: 0.48

What is on record for CG7886 [DRSC16333]?
replicate 1, z-score of dpERK with insulin: -0.07; replicate 2, z-score of dpERK with insulin: 0.51

Which result is listed for ova (ovaries absent) [DRSC02879]?
replicate 1, z-score of dpERK with insulin: -0.08; replicate 2, z-score of dpERK with insulin: -0.57

For Rcc1 (Regulator of chromosome condensation 1) [DRSC09684], what does the deposit list?
replicate 1, z-score of dpERK with insulin: 0.4; replicate 2, z-score of dpERK with insulin: 0.33

How did the screen score Ip6k (Inositol hexakisphosphate kinase) [DRSC04054]?
replicate 1, z-score of dpERK with insulin: -1.64; replicate 2, z-score of dpERK with insulin: -0.29

With foxo (forkhead box, sub-group O) [DRSC13017], what was measured?
replicate 1, z-score of dpERK with insulin: -5.51; replicate 2, z-score of dpERK with insulin: -1.97

For foxo (forkhead box, sub-group O) [DRSC15463], what was measured?
replicate 1, z-score of dpERK with insulin: -0.47; replicate 2, z-score of dpERK with insulin: 0.58

For CG17834 [DRSC02637], what does the deposit list?
replicate 1, z-score of dpERK with insulin: 0.88; replicate 2, z-score of dpERK with insulin: -0.07

With CG30050 [DRSC05342], what does the deposit list?
replicate 1, z-score of dpERK with insulin: 0.44; replicate 2, z-score of dpERK with insulin: -0.16

What is on record for CR34254 (pseudo) [DRSC09562]?
replicate 1, z-score of dpERK with insulin: -0.94; replicate 2, z-score of dpERK with insulin: -1

With PpN58A (Protein phosphatase N at 58A) [DRSC04642], how do the results read?
replicate 1, z-score of dpERK with insulin: 0.38; replicate 2, z-score of dpERK with insulin: 0.75

Which result is listed for CG13123 [DRSC02219]?
replicate 1, z-score of dpERK with insulin: -2.39; replicate 2, z-score of dpERK with insulin: -1

With Ssdp (Sequence-specific single-stranded DNA-binding protein) [DRSC16211], how do the results read?
replicate 1, z-score of dpERK with insulin: -0.45; replicate 2, z-score of dpERK with insulin: 0.29

With car (carnation) [DRSC20316], how do the results read?
replicate 1, z-score of dpERK with insulin: 0.88; replicate 2, z-score of dpERK with insulin: 0.14

With CG33339 [DRSC22917], how do the results read?
replicate 1, z-score of dpERK with insulin: 0.49; replicate 2, z-score of dpERK with insulin: 0.74

With CG4496 [DRSC02753], what does the deposit list?
replicate 1, z-score of dpERK with insulin: 0.77; replicate 2, z-score of dpERK with insulin: 0.98

With lncRNA:iab4 (long non-coding RNA:iab4) [DRSC22331], how do the results read?
replicate 1, z-score of dpERK with insulin: 0.41; replicate 2, z-score of dpERK with insulin: 1.05

Which result is listed for nonA-l (nonA-like) [DRSC17017]?
replicate 1, z-score of dpERK with insulin: -0.77; replicate 2, z-score of dpERK with insulin: -1.41

For pasha (partner of drosha) [DRSC15295], what does the deposit list?
replicate 1, z-score of dpERK with insulin: -0.34; replicate 2, z-score of dpERK with insulin: 0.6

With CG17636 [DRSC20648], what does the deposit list?
replicate 1, z-score of dpERK with insulin: -0.17; replicate 2, z-score of dpERK with insulin: 0.14

A portion taken from the entries so far, for reference:
nonA-l (nonA-like) [DRSC17017] → replicate 1, z-score of dpERK with insulin: -0.77; replicate 2, z-score of dpERK with insulin: -1.41
pasha (partner of drosha) [DRSC15295] → replicate 1, z-score of dpERK with insulin: -0.34; replicate 2, z-score of dpERK with insulin: 0.6
CG17636 [DRSC20648] → replicate 1, z-score of dpERK with insulin: -0.17; replicate 2, z-score of dpERK with insulin: 0.14
